Among the data in PMC11615292, “Fast-diffusing receptor collisions with slow-diffusing peptide ligand assemble the ternary parathyroid hormone–GPCR–arrestin complex” (Nature Communications, 2024) are binding values, retold here.

By UniProt entry, the sequences of proteins in these tests, tags left out. Residues count along the entry.
UniProt Q03431, residues 27-593: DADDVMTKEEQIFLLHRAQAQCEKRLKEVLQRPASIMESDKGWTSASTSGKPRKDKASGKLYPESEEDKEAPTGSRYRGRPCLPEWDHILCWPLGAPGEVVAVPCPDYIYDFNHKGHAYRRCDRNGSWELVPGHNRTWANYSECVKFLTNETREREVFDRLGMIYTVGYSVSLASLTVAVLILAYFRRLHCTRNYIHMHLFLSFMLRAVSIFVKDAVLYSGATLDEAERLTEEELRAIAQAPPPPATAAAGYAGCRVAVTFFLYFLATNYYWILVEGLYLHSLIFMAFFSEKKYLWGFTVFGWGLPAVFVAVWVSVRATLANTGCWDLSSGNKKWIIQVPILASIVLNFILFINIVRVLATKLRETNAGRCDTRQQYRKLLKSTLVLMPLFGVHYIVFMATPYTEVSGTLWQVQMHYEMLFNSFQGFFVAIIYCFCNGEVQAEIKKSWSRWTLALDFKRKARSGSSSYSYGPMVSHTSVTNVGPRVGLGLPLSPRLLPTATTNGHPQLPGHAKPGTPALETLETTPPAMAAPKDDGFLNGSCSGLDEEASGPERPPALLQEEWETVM
UniProt P32121: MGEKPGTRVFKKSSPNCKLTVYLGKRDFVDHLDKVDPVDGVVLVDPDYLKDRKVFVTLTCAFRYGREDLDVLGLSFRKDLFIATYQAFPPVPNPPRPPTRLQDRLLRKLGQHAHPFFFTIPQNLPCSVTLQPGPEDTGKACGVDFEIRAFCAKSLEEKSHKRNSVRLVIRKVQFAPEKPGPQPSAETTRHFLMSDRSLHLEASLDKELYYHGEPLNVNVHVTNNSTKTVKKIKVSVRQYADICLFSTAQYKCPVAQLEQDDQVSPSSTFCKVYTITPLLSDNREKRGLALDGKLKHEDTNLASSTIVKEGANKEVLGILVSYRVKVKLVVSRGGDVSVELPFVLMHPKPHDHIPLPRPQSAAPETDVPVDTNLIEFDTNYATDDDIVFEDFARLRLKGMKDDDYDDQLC

Experiment [1] concerns the target PTH type 1 receptor C-terminally fused to CFP (PTH1R^CFP) (human) (UniProt Q03431). As to the kind of experiment: FRET or BRET; single live HEK293 cells expressing PTH1R^CFP and βarr2^YFP; time courses under TIRF illumination in response to 10 nM PTH.
The target of experiment [2] is PTH type 1 receptor C-terminally fused to iRFP670 (PTH1R^iRFP) (human) (UniProt Q03431). As to the kind of experiment: dual-colour single-molecule coincidence detection (TIRF); live HEK293 cells co-expressing PTH1R^iRFP and βarr2^mNG or βarr2^PAmCherry (the latter in CLTA^mNG cells); stimulated with PTH (50 nM); coincidental detection within <80 nm.

Results are given in words; binding and its absence hold for the method and conditions named. For part of these data: Binding seen in cells or lysates may run through a third protein. Some entries that bind do so weakly or less than the wild type.

“β-arrestin 2 fused to YFP (βarr2^YFP) (from UniProt P32121 1-409)”: the binding result in experiment [1] is reported as “binds”.

For the substance “β-arrestin 2 fused to photoactivatable mCherry1 (βarr2^PAmCherry) (from UniProt P32121 1-409)”, in experiment [2], the binding entry is given as “binds”.

“β-arrestin 2 fused to mNeonGreen (βarr2^mNG) (from UniProt P32121 1-409)”: in experiment [2], the binding entry is listed as “binds”.
